Laboratory results from US20130209481A1 (University of California, published 2013).
No constants are given. Whether binding was seen depends on the method and setting. Some entries that bind do so weakly or less than the wild type.

The chains behind the UniProt entries cited, without tags or fusion partners. Where a name states a change or a piece, a line headed by the entry shows the natural chain unless it says otherwise. A line that says so, or that is headed by a name, gives the form on record, which may keep a tag or linker. Residues count along the entry.
CD44 of MDAMB231 cells (native CD44) (P16070, residues 21-742): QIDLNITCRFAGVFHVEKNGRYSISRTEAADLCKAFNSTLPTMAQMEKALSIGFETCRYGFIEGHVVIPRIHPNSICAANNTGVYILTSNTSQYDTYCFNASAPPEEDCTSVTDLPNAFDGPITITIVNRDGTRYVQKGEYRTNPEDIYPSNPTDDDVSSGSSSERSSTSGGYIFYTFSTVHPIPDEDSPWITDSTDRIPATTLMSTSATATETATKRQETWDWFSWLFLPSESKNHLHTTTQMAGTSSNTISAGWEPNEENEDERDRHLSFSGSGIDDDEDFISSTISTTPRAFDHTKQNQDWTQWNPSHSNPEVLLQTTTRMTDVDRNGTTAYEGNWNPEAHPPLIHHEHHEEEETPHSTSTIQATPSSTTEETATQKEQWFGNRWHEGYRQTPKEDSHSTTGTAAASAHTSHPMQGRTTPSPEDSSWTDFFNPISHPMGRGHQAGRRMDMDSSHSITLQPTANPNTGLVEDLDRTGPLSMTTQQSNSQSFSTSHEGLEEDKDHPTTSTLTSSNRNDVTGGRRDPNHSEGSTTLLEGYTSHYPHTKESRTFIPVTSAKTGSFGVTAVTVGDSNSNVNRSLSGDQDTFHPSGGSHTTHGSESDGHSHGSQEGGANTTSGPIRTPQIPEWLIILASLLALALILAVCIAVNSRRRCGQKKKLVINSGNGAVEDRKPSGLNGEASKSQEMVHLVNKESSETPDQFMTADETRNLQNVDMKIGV
CD44s (standard form) (P16070, form named): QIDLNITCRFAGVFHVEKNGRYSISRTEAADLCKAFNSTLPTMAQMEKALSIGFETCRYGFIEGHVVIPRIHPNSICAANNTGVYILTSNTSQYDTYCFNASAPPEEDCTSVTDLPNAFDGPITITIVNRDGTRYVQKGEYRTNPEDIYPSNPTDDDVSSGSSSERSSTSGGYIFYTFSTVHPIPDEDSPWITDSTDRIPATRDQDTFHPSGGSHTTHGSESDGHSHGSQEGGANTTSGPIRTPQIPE

Tests used:
CD44s (standard form) [1] = biological target: CD44s (standard form) (UniProt P16070); assay: phagemid antibody selected on yeast displayed antigen; screened by flow cytometry as in Examples 4 and 5
[2] = biological target: CD44 of MDAMB231 cells (native CD44) (human) (UniProt P16070); assay: immunoprecipitation with soluble scFv, Western blot
[3] = biological target: CD44 of MDAMB231 cells (native CD44) (human) (UniProt P16070); assay: flow cytometry of phage antibody on MDAMB231 cells
[4] = biological target: CD44 of MDAMB231 cells (native CD44) (human) (UniProt P16070); assay: immunoprecipitation with soluble His-tagged scFv from MDAMB231 cell extract, Western blot with anti-CD44 Ab-4
CD44s (standard form) [5] = biological target: CD44s (standard form) (UniProt P16070); assay: fd phage antibody selected on yeast displayed antigen; screened by flow cytometry as in Examples 4 and 5

B1: H1C4 (scFv)
scFv: QVQLVESGGGLVQPGGSLRLSCAASGFTFSTLAMGWVRQAPGKGLEWVSAISGSGGSTYYADSVKGRFTISRDNSKNTLYLQMNSLRAEDTAVYYCARGAVGATTAFDYWGQGTLVTVSSGGGGSGGGGSGGGGSSELTQDPAVSVALGQTVKITCQGDSLRSYYASWYQQKPGQAPVLVIYGKNNRPSGIPDRFSGSSSGNTASLTITGAQAEDEADYYCNSRDSSGNHLVFGGGTKLTVLG
In the case of B1, the binding (CD44s (standard form) [1]) is reported as “binds”.

B2: anti-CD44 human scFv F2-1A6 (scFv, V domains shown)
VH: QVQLVQSGAEVKKPGESLKISCKGSGYSFTSYWIGWVRQMPGKGLEWMGIIYPGDSDTRYSPSFQGQVTISADKSISTAYLQWSSLKASDTAMYYCARRLHGPFYFDYWGQGTLVTVSS
VL: SELTQDPAVSVALGQTVRITCQGDSLRSYYASWYQQKPGQAPLLVIYGKNIRPSGIPDRFSGSSSGNTASLTITGAQAEDEADYYCNSRDSSGNHVVFGGGTKLTVLG
notes: soluble scFv with C-terminal (His)6 tag in the immunoprecipitation; also called anti-CD44 phage F2-1A6
With B2 the binding [2] was “binds”, the binding [3] was “binds” and the binding [4] was “binds”.

B3: D6D3 (scFv)
scFv: QVQLQESGGGLVQPGGSLRLSCAASGFTFSSYAMSWVRQAPGKGLEWVSAITSSGGRTYYADSVRGRLTISRDNSKNTLYLQMNTLRAEDTAVYYCAKGIVGATAFDYWGQGTLVTVSSGGGGSGGGGSGGGGSSELTQDPAVSVALGQTVRITCQGDSLRSYYASWYQQKPGQAPVLVIYGKNNRPSGIPDRFSGSSSGNTASLTITGAQAEDEADYYCNSRDSSGNSVVFGGGTKVTVLG
For B3, the binding (CD44s (standard form) [5]) was “binds”.

B4: D6G9 (scFv)
scFv: QVQLVESGGGLVQPGGSLRLSCAASGFTFSSYAMGWVRQAPGKGLEWVSAISASGGSTYYADSVKGRFTISRDNSKNTLYLQLNSLRAEDTAVYYCAKGLKDSSGFDYWGQGTLVTVSSGGGGSGGGGSGGGGSNFMLTQDPAVSVALGQTVRITCQGDSLRSYYASWYQQKPGQAPVLVIYGKNNRPSGIPDRFSGSSSGNTASLTITGAQAEDEADYYCNSRDSSAKRVVFGGGTKVTVLG
With B4 the binding (CD44s (standard form) [5]) was “binds”.
